## Primary screen of a compound library

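Assay of Toxoplasma gondii numbers, read through their beta-galactosidase reporter with a colour substrate. Compounds at 50 µM. The record gives no direction; the compounds picked for IC50 retests had high values, so higher reads as fewer parasites. Size under these conditions: about 18,000 compounds, about 170 of them at 50% or above in at least one test.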

Each number is a percent effect as filed. The controls that fix the scale are not given in the record; negative values are as filed. Compounds were drawn at random from those tested, without regard to their results.

structure | Percent Effect
COc1ccc(Cl)cc1CNCCSc1nnnn1C | -8.775%
CC(=O)c1ccc(C(=O)NCCN2CCCOC2=O)s1 | 4.951%
CS(=O)(=O)N1CCC(NCCSc2cnn[nH]2)CC1 | -6.705%
Cc1nnc(SCC(=O)NCC2CC2)s1 | -12.63%
Cc1cccc(-n2nnnc2C)c1 | 1.763%
CCOCC(=O)N1CCN(C)Cc2ccccc21 | 7.898%
Cc1noc(-c2ccc(CN)cc2)n1 | 19.16%
Cc1cncc(C(=O)N(C)C2(C(N)=O)CCCC2)c1 | -2.982%
CS(=O)(=O)c1nc2ccccc2n1CCC(N)=O | -9.514%
O=C(c1ccc(O)nc1)N1CCCCCCC1 | -10.69%
NC(=O)CCc1csc(N)n1 | -1.222%
Cc1nc[nH]c1CN1CCC(CN2CCOCC2)CC1 | -17.01%
CN(CCC#N)C(=O)CN(C)c1ccc(Cl)cn1 | -20.4%
Cc1c[nH]c(C(=O)N2CCCN(C3CCCC3)CC2)n1 | -2.79%
COc1ccc(C2CCCN2CC(=O)NC(N)=O)cc1 (centres unmarked) | 4.049%
COc1cccc(CC(=O)N2CCNCC2)c1 | -6.087%
OCc1cc(N2CCC(O)CC2)ccn1 | 8.049%
CC(=O)Nc1ccc(C(=O)CSc2nnc[nH]2)cc1 | -12.1%
Cc1nc(N)ncc1C(=O)NCC1COCCO1 (centres unmarked) | 15.92%
CCCC(NC(=O)c1ncoc1C)C(=O)OC (centres unmarked) | 0.6946%
CC(N)C(=O)N1CCN(C)CC1 (centres unmarked) | 4.766%
COc1ccccc1NC(=O)CC#N | 50.64%

For reference, 2 entries once more:

structure,Percent Effect
Cc1cccc(-n2nnnc2C)c1,1.763%
CC(=O)c1ccc(C(=O)NCCN2CCCOC2=O)s1,4.951%

Measurements from “University of Dundee, Small-Polar-MMV Screening Library” (2021), ChEMBL document CHEMBL3988442.